According to PubChem BioAssay AID540256 (National Center for Advancing Translational Sciences (NCATS), 2011):
Out of some 300,000 compounds screened, about 3,700 (1.2%) were called active. Inconclusive results, whose numbers are uncertain, are shown with a selection of clear calls. The call rests on the fitted dose curve; tested in HEK293 cells. Potencies of inconclusive entries are doubtful fits and often do not repeat.

test: qHTS for Inhibitors of binding or entry into cells for Lassa Virus; conditions: Lassa virus pseudotype entry inhibition, cell reporter; activity change, negative = inhibition: at 37.9 µM (top of the series) unless noted; further: nearly all actives have a fitted effect of over 50% in size
On the % scale 0 is the no-effect control and ±100 the full control effect; potency means the concentration at half of the fitted maximal effect.

Row | Compound | activity change, negative = inhibition | Potency
1 | Cc1ccc(S(=O)(=O)/C(C#N)=C/c2c(N3CCN(C)CC3)nc3ccccn3c2=O)cc1 | inactive: -8.33% | 
2 | CC(OC(=O)Cn1cnc2c1c(=O)n(C)c(=O)n2C)C(=O)NC1CCCCC1C (stereo unspecified) | inactive: -9.52% | 
3 | COc1ccc(/C(N)=N/OC(=O)Cc2ccc(C)cc2)cc1OC |  | inconclusive: 9.2 µM [inhibitor, partial curve]
4 | Cc1ccc(CN2C(=O)CCC2C(=O)N2CCN(c3ccc(F)cc3)CC2)cc1 (stereo unspecified) |  | inconclusive: 35.5 µM [inhibitor, single point]
5 | O=C(N/N=C/c1ccc2c(c1)OCO2)C(=O)Nc1ccccc1 | inactive: 11.1% [at 46.1 µM] | 
6 | CCC(=O)N1CCN(c2ccccc2NC(=O)c2cccs2)CC1 |  | inconclusive: 5.62 µM [activator, single point]
7 | Cc1nn(-c2ccc(N3CCOCC3)nn2)c(C)c1CCC(=O)NCc1ccc(OC(C)C)cc1 | inactive: -17.9% [at 46.1 µM] | 
8 | Cc1cccc(C)c1OCC(O)CNC(C)c1ccccc1 (stereo unspecified) |  | inconclusive: 35.5 µM [inhibitor, single point]
9 | COc1ccc(-c2nc3c(c4c2C[C@H](c2ccccc2)OC4)CN(C(=O)Nc2cccc(C#N)c2)CC3)c(C)c1 |  | inconclusive: 5.96 µM [inhibitor, partial curve, poor fit]
10 | Cc1c(C2=CCN(S(=O)(=O)c3ccc(CC(C)C)cc3)CC2)c2ccccc2n1CC(=O)N1CCCC1 | inactive: -21.7% [at 46.1 µM] | 
11 | c1ccc(Cn2nnc3c(N4CCCC4)ncnc32)cc1 | inactive: 3.47% | 
12 | CCOC(=O)COc1ccc(S(=O)(=O)NCc2ccncc2)cc1 |  | inconclusive: 0.517 µM [inhibitor, full curve, poor fit]
13 | Cc1ccccc1OCC(=O)N(Cc1nc(-c2ccccc2)no1)C(C)C | inactive: -10% | 
14 | Cc1cc(/C=N/n2cnnc2)c(C)n1-c1ccc(OCc2ccc(Cl)cc2)cc1 |  | inconclusive: 12.6 µM [inhibitor, partial curve, poor fit]
15 | FC(F)(F)Oc1ccc(NC(=S)Nc2ccccc2N2CCOCC2)cc1 |  | inconclusive: 22.4 µM [inhibitor, partial curve, poor fit]
16 | CCn1c(SCCOc2ccccc2F)nc2ccccc21 | inactive: 5.76% [at 46.1 µM] | 
17 | Cc1cccc(C(C(=O)NC2CCCCC2)N(C(=O)c2csnn2)C2CC2)c1 (stereo unspecified) |  | inconclusive: 35.5 µM [activator, partial curve, poor fit]
18 | CC(C)c1ccc(S(=O)(=O)/N=C2/C=C(Sc3ncn[nH]3)C(=O)c3ccccc32)cc1 |  | inconclusive: 11.2 µM [inhibitor, partial curve, poor fit]
19 | Cc1ccc(C)c(Nc2c([N+](=O)[O-])ccc3nonc23)c1 | inactive: -0.506% | 
20 | CSCCC(NS(=O)(=O)c1ccc(Cl)cc1)C(=O)OCc1c(Cl)cccc1Cl (stereo unspecified) |  | inconclusive: 29.1 µM [inhibitor, single point]
21 | O=C(OCc1nc2ccccc2s1)C1CCN(S(=O)(=O)c2cccs2)CC1 |  | inconclusive: 11.2 µM [activator, single point]
22 | CC(C)CCNC(=O)C(=O)Nc1ccc2c(c1)N(S(=O)(=O)c1cccs1)CCC2 |  | inconclusive: 2 µM [inhibitor, partial curve, poor fit]

Entries above that have a Cl atom (2):
Row | Compound | activity change, negative = inhibition | Potency
14 | Cc1cc(/C=N/n2cnnc2)c(C)n1-c1ccc(OCc2ccc(Cl)cc2)cc1 |  | inconclusive: 12.6 µM [inhibitor, partial curve, poor fit]
20 | CSCCC(NS(=O)(=O)c1ccc(Cl)cc1)C(=O)OCc1c(Cl)cccc1Cl (stereo unspecified) |  | inconclusive: 29.1 µM [inhibitor, single point]

Going on with the list.

Row | Compound | activity change, negative = inhibition | Potency
23 | COCC1CCN(C(=O)c2cc(COc3ccc4ncccc4c3)on2)CC1 |  | inconclusive: 7.08 µM [inhibitor, full curve]
24 | CC1(C)CC(=O)C2=C(C1)OC(N)=C(C#N)C2C1CC=CCC1 (stereo unspecified) | inactive: -31.6% | 
25 | CCOC(=O)c1cc(-c2ccc(C)cc2)n(CCC(=O)NCCN(C)C)c1C |  | inconclusive: 20.6 µM [inhibitor, partial curve, poor fit]
26 | CCOC(=O)CSc1nc(C)nc2c1sc1nc(C)c(C(C)=O)c(-c3ccc(OC)cc3)c12 |  | inconclusive: 0.206 µM [inhibitor, full curve, poor fit]
27 | CC1CN(CC(=O)Nc2nc(-c3ccc(Cl)cc3)cs2)CC(C)O1 (stereo unspecified) |  | inconclusive: 3.16 µM [inhibitor, partial curve, poor fit]
28 | CC(C)(C)c1ccc2c(c1)OC(C(=O)N/N=C/c1ccc([N+](=O)[O-])o1)CO2 (stereo unspecified) |  | inconclusive: 31.6 µM [inhibitor, partial curve, poor fit]
29 | Cc1ccn2c(C(=O)CSc3ccccc3Cl)c(C)nc2c1 |  | inconclusive: 12.6 µM [inhibitor, single point]
30 | CC1Cc2ccccc2N1C(=O)C12CCC(C)(C(=O)C1)C2(C)C (stereo unspecified) |  | inconclusive: 1.16 µM [inhibitor, partial curve]
31 | COc1ccc(N(CC(=O)N2CCN(c3cccc(C)c3C)CC2)S(=O)(=O)c2c(C)noc2C)cc1 |  | inconclusive: 10 µM [inhibitor, partial curve]
32 | COc1ccc(N(Cc2cc3ccc(C)cc3[nH]c2=O)C(C)=O)cc1 |  | inconclusive: 0.1 µM [inhibitor, full curve, poor fit]
33 | O=C(NC1CCCCCC1)C1CCN(C(=O)Cc2ccccc2)CC1 | inactive: 13.7% | 
34 | Cc1ccc(CNS(=O)(=O)c2ccc3c(c2)CCN3S(C)(=O)=O)cc1 | inactive: -28.2% [at 46.1 µM] | 
35 | O=C(NC1CCCCCCC1)C1c2ccccc2C(=O)N1Cc1cccs1 (stereo unspecified) |  | inconclusive: 11.2 µM [inhibitor, partial curve, poor fit]
36 | CC(=O)Nc1cc(NC(C)=O)cc(C(=O)OCC(=O)Nc2ccc(S(=O)(=O)NC3=NCCCCC3)cc2)c1 |  | inconclusive: 1 µM [activator, full curve]
37 | O=C(Nc1cccc(C(F)(F)F)c1)C1CCCN1S(=O)(=O)c1cccc2cccnc12 (stereo unspecified) |  | inconclusive: 20.6 µM [inhibitor, single point]
38 | COc1ccc(C(CNC(=O)Cc2cc(OC)c(OC)c(OC)c2)N2CCCC2)cc1 (stereo unspecified) |  | inconclusive: 10.3 µM [activator, partial curve]
39 | CCN(CC)C(=O)CSc1nc(-c2cccs2)cc(-c2cccs2)c1C#N |  | active: 18.3 µM
40 | O=C(N/N=C/c1ccncc1)c1ccc(NS(=O)(=O)c2cccs2)cc1 | inactive: 10.7% | 
41 | Nc1nc(SCC(=O)Nc2ccc([N+](=O)[O-])cc2)[nH]c(=O)c1NC(=O)c1ccc(Br)o1 | inactive: 1.3% | 
42 | COc1ccc2nc(C)cc(Nc3ccc(C)cc3)c2c1 |  | inconclusive: 12.6 µM [inhibitor, partial curve, poor fit]
43 | Cc1cc(N2CCC(C(=O)NC3CC3)CC2)nc(-c2ccccc2)n1 | inactive: 3.92% | 
44 | CCOc1ccc(NS(=O)(=O)c2ccc3[nH]c4c(c3c2)CCCC4)cc1 |  | inconclusive: 35.5 µM [inhibitor, single point]

Row | Compound | activity change, negative = inhibition | Potency
45 | COc1ccc(CC(=O)NC(=S)Nc2ccc(S(=O)(=O)NC(C)(C)C)cc2)cc1 |  | inconclusive: 35.5 µM [inhibitor, single point]
46 | COCCn1c(=O)[nH]c2cc(C(=O)NCCN3CCN(c4cccc(Cl)c4)CC3)ccc2c1=O |  | inconclusive: 29.1 µM [inhibitor, single point]
47 | Cc1nn(-c2ccccc2)c(C)c1/C=N/n1c(-c2ccc(Cl)cc2)n[nH]c1=S |  | inconclusive: 3.55 µM [inhibitor, full curve, poor fit]
48 | COc1ccc(Cl)cc1C(=O)NNC(=S)NC(=O)c1cc(-c2ccc(Cl)cc2)nc2ccccc12 |  | inconclusive: 1 µM [activator, single point]
49 | COc1ccc2[nH]c(CN3CCC(CO)(CCOc4ccccc4)CC3)c(C)c2c1 |  | inconclusive: 10 µM [inhibitor, partial curve, poor fit]
50 | CCCC(=O)OCCNc1cc(Sc2nccn2C)c2nonc2c1[N+](=O)[O-] |  | inconclusive: 22.4 µM [inhibitor, partial curve, poor fit]
51 | O=C(/C=C\c1ccc(-c2cccc([N+](=O)[O-])c2)o1)N1CCOCC1 | inactive: -4.36% [at 46.1 µM] | 
52 | Cc1cc([N+](=O)[O-])ccc1NC(=O)c1cc2ccccc2o1 |  | inconclusive: 22.4 µM [activator, single point]
53 | Cc1ccc2nc3c(nc2c1)-c1ccccc1C3=O |  | inconclusive: 3.26 µM [activator, full curve, poor fit]
54 | CCCCNC(C(=O)Nc1ccc([N+](=O)[O-])cc1Br)c1ccccc1 (stereo unspecified) | inactive: 11.7% | 
55 | C/C(CC(=O)NC(C)(C)C)=N\NC(=O)COc1ccc(C)cc1Br |  | inconclusive: 35.5 µM [inhibitor, single point]
56 | N/C(=N\OC(=O)c1ccccc1[N+](=O)[O-])c1ccccn1 |  | inconclusive: 35.5 µM [inhibitor, single point]
57 | CCOc1ccc(CNC(=O)c2ccc(-c3nc(CS(=O)(=O)c4ccccc4)c(C)o3)cc2)cc1 | inactive: 39.1% [at 46.1 µM] | 
58 | CC(=O)Nc1sc(NC(=O)c2ccco2)nc1-c1cccs1 |  | inconclusive: 6.31 µM [inhibitor, single point]
59 | Cc1c(NC(=O)CSc2cccc3cccnc23)c(=O)n(-c2ccccc2)n1C |  | inconclusive: 23.1 µM [inhibitor, single point]
60 | COc1ccccc1N1CCNCC1 |  | inconclusive: 0.0046 µM [activator, full curve, poor fit]
61 | COc1ccc(C2N=C(c3ccccc3)NO2)cc1OC (stereo unspecified) |  | inconclusive: 5.62 µM [activator, single point]
62 | CC(C)(C)c1ccc(OCCCn2ccnc2)cc1 | inactive: -0.894% [at 46.1 µM] | 
63 | COc1ccc(CNC(=O)CN(C)Cc2ccc(SC)cc2)cc1 |  | inconclusive: 2.24 µM [inhibitor, full curve]
64 | Cc1ccc(CNS(=O)(=O)c2ccc3c(c2)n(C)c(=O)n3C)cc1 |  | inconclusive: 35.5 µM [inhibitor, single point]
65 | Cc1ccc2cc(CCNC(=O)c3cccc([N+](=O)[O-])c3)c(=O)[nH]c2c1C | inactive: 1.12% | 
66 | Cc1sc2ncnc(N3CCOCC3)c2c1C | inactive: 2.34% | 
